Measurements published in paper PMC9355963.
No constants are given. Whether binding was seen depends on the method and setting. Some binding calls cover weakened binding; strength is not graded here. Tags and fused reporters may be left off the sequences shown.

Amino acid sequences for entries named in this document (tags omitted). A change or cut given only in a name is not applied to a line headed by its entry.
UniProt Q9NZQ7: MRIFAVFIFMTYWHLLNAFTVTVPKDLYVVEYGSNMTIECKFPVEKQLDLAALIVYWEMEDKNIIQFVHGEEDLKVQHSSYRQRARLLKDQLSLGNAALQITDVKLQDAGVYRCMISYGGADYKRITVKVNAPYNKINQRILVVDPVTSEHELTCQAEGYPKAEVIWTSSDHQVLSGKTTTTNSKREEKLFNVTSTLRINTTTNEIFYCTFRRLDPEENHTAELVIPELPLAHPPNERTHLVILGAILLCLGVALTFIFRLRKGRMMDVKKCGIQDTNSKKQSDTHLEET

Biological target: T1, PD-L2, full-length untagged receptor on cells (UniProt Q9BQ51)
T1 sequence: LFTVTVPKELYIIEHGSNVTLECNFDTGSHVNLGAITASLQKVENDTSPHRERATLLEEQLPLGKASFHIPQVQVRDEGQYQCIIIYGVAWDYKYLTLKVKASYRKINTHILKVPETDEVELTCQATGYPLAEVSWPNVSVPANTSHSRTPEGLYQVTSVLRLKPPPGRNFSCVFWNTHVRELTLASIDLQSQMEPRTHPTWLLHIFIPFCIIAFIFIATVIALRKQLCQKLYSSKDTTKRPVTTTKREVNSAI
Experiment: fluorescent streptavidin tetramer binding to transfected cells, imaging; only the binder purified

PD-L1 ectodomain, Avi-tagged, biotinylated (from UniProt Q9NZQ7 19-238) (domain or fragment)
binding: binds
